Data as given in PubChem BioAssay AID504804 (Drosophila RNAi Screening Center, 2011)
The deposit covers about 19,000 reagents; below is an unselected part of those that have a named target and a result. Over the whole deposit, 47 (0.25%) got an active call. 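Signals are raw, not normalised; exact z-scores behind calls not deposited; actives needed confirmation, so some wells reaching 2 SD are inactive.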 A plus sign joins genes that one reagent is predicted to hit. No sequences are given here.

- Assay: 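Fly genes whose loss lessens doxorubicin-driven cell death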 (primary screen)
- System: Drosophila Kc cells
- Reagent: long dsRNA against Drosophila genes, 0.5 µg dsRNA per well
- Time to read-out: 96 h (48 h knock-down, then 48 h drug)
- Challenge: doxorubicin 5 µg/ml for 48 h, added 48 h after dsRNA
- Read-out: 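Viability measured as cellular ATP by luminescence after 48 h knock-down then 48 h doxorubicin at 5 µg/ml; unnormalised plate counts for each replicate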
- Scale: raw ATP luminescence: higher = more viable cells, protection from doxorubicin
- Active means: 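Active when both duplicate wells lie at least 2 SD above the plate mean and protection is confirmed by rescreening and independent dsRNAs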

| raw ATP luminescence, replicate 1 | raw ATP luminescence, replicate 2 | Outcome | target | amplicon |
| --- | --- | --- | --- | --- |
| 2.11e5 | 2.31e5 | inactive | CG1737 (GeneID 32077) | DRSC19771 |
| 2.13e5 | 2.01e5 | inactive | kl-3 (retired record) (GeneID 5740653) | DRSC20730 |
| 3.76e5 | 2.68e5 | inactive | kl-3 (retired record) (GeneID 5740653) | DRSC20891 |
| 2.30e5 | 2.37e5 | inactive | kl-3 (retired record) (GeneID 5740653) | DRSC20934 |
| 34170 | 32277 | inactive | mas (GeneID 38499) | DRSC08720 |
| 82207 | 57583 | inactive | RpS11 (GeneID 36321) | DRSC07289 |
| 3.24e5 | 3.17e5 | inactive | CG15725 (GeneID 32224) | DRSC19691 |
| 51040 | 59700 | inactive | CG17751 (GeneID 42336) | DRSC15261 |
| 58950 | 42127 | inactive | CG14989 (GeneID 38485) | DRSC08448 |
| 1.12e5 | 62210 | inactive | PolrMT (GeneID 33285) | DRSC00660 |
| 73807 | 68127 | inactive | BNIP3 (GeneID 40278) | DRSC11761 |
| 2.43e5 | 2.46e5 | inactive | Tak1 (GeneID 39659) | DRSC20390 |
| 3.51e5 | 3.17e5 | inactive | Tak1 (GeneID 39659) | DRSC20561 |
| 3.98e5 | 3.03e5 | inactive | Tak1 (GeneID 39659) | DRSC20562 |
| 74487 | 60137 | inactive | Tsp42Ee (GeneID 35614) | DRSC05947 |
| 47593 | 42783 | inactive | CG10628 (GeneID 35263) | DRSC02080 |
| 69920 | 99850 | inactive | SKIP (GeneID 42601) | DRSC14713 |
| 48820 | 65710 | inactive | SKIP (GeneID 42601) | DRSC14714 |
| 60890 | 53730 | inactive | SKIP (GeneID 42601) | DRSC15864 |
| 61897 | 45070 | inactive | SKIP (GeneID 42601) | DRSC16195 |
| 58140 | 73730 | inactive | SKIP (GeneID 42601) | DRSC16196 |
| 47497 | 54233 | inactive | vrs (GeneID 41537) | DRSC15832 |
| 43643 | 49057 | inactive | Obp58d (GeneID 37609) | DRSC04162 |
| 52560 | 50050 | inactive | mus81 (GeneID 31044) | DRSC18180 |
| 67100 | 52810 | inactive | mus81 (GeneID 31044) | DRSC18644 |
| 46153 | 35600 | inactive | Indy-2 + CG33934 | DRSC15685 |
| 30760 | 23520 | inactive | Indy-2 + CG33934 | DRSC15686 |
| 60337 | 59097 | inactive | CG33170 (GeneID 326267) | DRSC11854 |
| 3.30e5 | 3.33e5 | inactive | Tim9a (GeneID 32294) | DRSC19753 |
| 35680 | 43340 | inactive | CG1958 (GeneID 31661) | DRSC18196 |
| 28140 | 30240 | inactive | Tlk (GeneID 318206) | DRSC17731 |
| 16030 | 16550 | inactive | Tlk (GeneID 318206) | DRSC17835 |
| 51140 | 66067 | inactive | Su(H) (GeneID 34881) | DRSC03445 |
| 61940 | 57730 | inactive | dysf (GeneID 43174) | DRSC14529 |
| 65310 | 61220 | inactive | dysf (GeneID 43174) | DRSC14895 |
| 81020 | 57050 | inactive | dysf (GeneID 43174) | DRSC14896 |
| 16150 | 16230 | inactive | dysf (GeneID 43174) | DRSC14897 |
| 18543 | 19533 | inactive | CG6839 (GeneID 40067) | DRSC10723 |
| 69277 | 80107 | inactive | Cbp53E (GeneID 36905) | DRSC07356 |
| 1.21e5 | 71057 | inactive | CG9154 (GeneID 33858) | DRSC03150 |
| 53037 | 52157 | inactive | CG13558 (GeneID 37719) | DRSC04196 |
| 38313 | 55713 | inactive | promL (GeneID 38372) | DRSC08733 |
| 19393 | 21933 | inactive | RecQ5 (GeneID 39594) | DRSC11266 |
| 65690 | 57280 | inactive | CG14324 (GeneID 42119) | DRSC14803 |
| 1.05e5 | 60097 | inactive | side-VIII (GeneID 37310) | DRSC05880 |
| 16900 | 24377 | inactive | side-VIII (GeneID 37310) | DRSC05883 |
| 2.01e5 | 1.63e5 | inactive | side-VIII (GeneID 37310) | DRSC06157 |
| 91650 | 87860 | inactive | CG11262 (GeneID 39471) | DRSC09831 |
| 63290 | 47100 | inactive | CG8728 (GeneID 35748) | DRSC07251 |
| 23760 | 29063 | inactive | Prosbeta2 (GeneID 39628) | DRSC11257 |
| 80600 | 66880 | inactive | Hmx (GeneID 42110) | DRSC15884 |
| 93850 | 96010 | inactive | Hmx (GeneID 42110) | DRSC16706 |
| 38267 | 46677 | inactive | TBC1D16 (GeneID 34431) | DRSC02841 |
| 3.96e5 | 3.53e5 | inactive | CG17600 (GeneID 33141) | DRSC20638 |
| 3.44e5 | 2.94e5 | inactive | CG17600 (GeneID 33141) | DRSC20640 |

10 entries from above, reduced to “raw ATP luminescence, replicate 1”.
Indy-2 + CG33934 [DRSC15686] = 30760
CG33170 (GeneID 326267) [DRSC11854] = 60337
Tim9a (GeneID 32294) [DRSC19753] = 3.30e5
CG1958 (GeneID 31661) [DRSC18196] = 35680
Tlk (GeneID 318206) [DRSC17731] = 28140
Tlk (GeneID 318206) [DRSC17835] = 16030
Su(H) (GeneID 34881) [DRSC03445] = 51140
dysf (GeneID 43174) [DRSC14529] = 61940
dysf (GeneID 43174) [DRSC14895] = 65310
dysf (GeneID 43174) [DRSC14896] = 81020

Next records:
| raw ATP luminescence, replicate 1 | raw ATP luminescence, replicate 2 | Outcome | target | amplicon |
| --- | --- | --- | --- | --- |
| 56740 | 43370 | inactive | Asator (GeneID 43794) | DRSC17136 |
| 62690 | 49030 | inactive | CG14818 (GeneID 31147) | DRSC18548 |
| 41590 | 45060 | inactive | CG15471 (GeneID 31412) | DRSC18054 |
| 66470 | 74703 | inactive | Hsl (GeneID 37289) | DRSC06028 |
| 62297 | 74970 | inactive | CG5033 (GeneID 37036) | DRSC07410 |
| 2.05e5 | 1.88e5 | inactive | Phb2 (GeneID 46038) | DRSC06512 |
| 68340 | 63897 | inactive | lectin-46Ca (GeneID 53523) | DRSC06612 |
| 1.67e5 | 2.15e5 | inactive | Dci (GeneID 38100) | DRSC08360 |
| 47540 | 37650 | inactive | CG7029 (GeneID 42703) | DRSC16177 |
| 59443 | 65410 | inactive | ND-B22 (GeneID 34747) | DRSC03193 |
| 75907 | 52817 | inactive | Cyp4e2 (GeneID 35822) | DRSC07371 |
| 41890 | 46693 | inactive | CG8064 (GeneID 42196) | DRSC16373 |
| 43540 | 78837 | inactive | Shawl (GeneID 5740840) | DRSC02209 |
| 46280 | 81717 | inactive | Shawl (GeneID 5740840) | DRSC02748 |
| 46600 | 47030 | inactive | CG14420 (GeneID 31284) | DRSC17917 |
| 63820 | 53863 | inactive | Ccp84Ad (GeneID 40822) | DRSC12589 |
| 2.43e5 | 2.66e5 | inactive | gskt (GeneID 318552) | DRSC14056 |
| 60397 | 79383 | inactive | CG13954 (GeneID 35959) | DRSC06442 |
| 22410 | 35790 | inactive | RpL35 (GeneID 31483) | DRSC18347 |
| 45700 | 88440 | inactive | mRpL52 (GeneID 35711) | DRSC06585 |
| 39873 | 39207 | inactive | CG33490 (GeneID 2768970) | DRSC10587 |
| 60630 | 28913 | inactive | CG9630 (GeneID 40974) | DRSC16527 |
| 64643 | 63863 | inactive | CG32457 (GeneID 318040) | DRSC11596 |
| 93287 | 76710 | inactive | CG4822 (GeneID 33170) | DRSC00669 |
| 38643 | 26230 | inactive | CG8483 (GeneID 41623) | DRSC16430 |
| 78913 | 79760 | inactive | CG13708 (GeneID 38582) | DRSC08317 |
| 62410 | 56090 | inactive | spg (GeneID 43404) | DRSC14373 |
| 59580 | 55860 | inactive | spg (GeneID 43404) | DRSC14881 |
| 20560 | 22610 | inactive | Syx7 (GeneID 36173) | DRSC11763 |
